Test results as given in doi:10.1101/550277.
Residue numbers refer to the chain shown, from its start. No constants are given. Whether binding was seen depends on the method and setting. In cells and extracts the contact can be indirect. Some binding calls cover weakened binding; strength is not graded here. For part of these data: Sequences can lack the tags named with a protein.

Chains of the proteins cited; added tags and fusions are not shown.
UniProt Q24117: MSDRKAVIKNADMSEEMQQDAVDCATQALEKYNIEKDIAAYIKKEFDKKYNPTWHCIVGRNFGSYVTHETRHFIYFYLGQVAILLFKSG

Assays:
Assay in all cases: co-IP
[1] = molecular target: T1, Egl_4e-RFP expressed in S2 cells (Drosophila) (UniProt Q9W1K4)
T1 sequence: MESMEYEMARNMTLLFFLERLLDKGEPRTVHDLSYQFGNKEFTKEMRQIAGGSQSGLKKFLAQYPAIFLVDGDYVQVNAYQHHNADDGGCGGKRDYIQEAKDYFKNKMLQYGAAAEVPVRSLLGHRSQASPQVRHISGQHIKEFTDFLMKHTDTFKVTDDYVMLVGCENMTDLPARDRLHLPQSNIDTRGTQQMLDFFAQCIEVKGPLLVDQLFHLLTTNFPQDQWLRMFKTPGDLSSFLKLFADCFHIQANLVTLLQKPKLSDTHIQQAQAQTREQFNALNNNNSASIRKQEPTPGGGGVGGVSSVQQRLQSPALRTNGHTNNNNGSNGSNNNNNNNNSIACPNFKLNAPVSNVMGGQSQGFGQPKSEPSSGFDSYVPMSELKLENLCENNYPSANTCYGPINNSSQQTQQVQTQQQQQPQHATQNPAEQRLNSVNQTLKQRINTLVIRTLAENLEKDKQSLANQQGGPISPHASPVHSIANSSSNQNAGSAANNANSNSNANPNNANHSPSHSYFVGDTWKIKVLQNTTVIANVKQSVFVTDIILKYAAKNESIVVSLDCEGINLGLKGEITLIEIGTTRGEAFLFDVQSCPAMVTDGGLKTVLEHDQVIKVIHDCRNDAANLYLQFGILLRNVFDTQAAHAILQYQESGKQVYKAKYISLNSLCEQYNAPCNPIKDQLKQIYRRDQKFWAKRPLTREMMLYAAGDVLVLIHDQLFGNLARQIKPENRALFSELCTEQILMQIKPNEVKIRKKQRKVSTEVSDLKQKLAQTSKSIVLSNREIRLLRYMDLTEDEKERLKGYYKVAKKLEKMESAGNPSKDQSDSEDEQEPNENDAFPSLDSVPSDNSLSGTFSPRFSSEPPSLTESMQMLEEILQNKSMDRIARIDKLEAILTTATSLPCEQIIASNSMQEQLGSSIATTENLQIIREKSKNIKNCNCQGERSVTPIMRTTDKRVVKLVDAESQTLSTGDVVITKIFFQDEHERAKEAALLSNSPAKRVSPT

[2] = molecular target: T2, Egl_wt-GFP expressed in S2 cells (second copy in the dimerisation test: Egl_wt-FLAG) (Drosophila) (UniProt Q9W1K4)
T2 sequence: T1 sequence with Y35C

[3] = molecular target: T3, Egl_wt-RFP expressed in S2 cells (Drosophila) (UniProt Q9W1K4)
T3 sequence: T1 sequence with Y35C

- binding [1]: binds
- binding [2]: binds
- binding [3]: binds
Substance: Dynein light chain/LC8 (Dlc) in S2 cell lysate (from UniProt Q24117 1-89)
